Binding data for one molecule are collected here from patent publication US20150376238A1 (University of Washington, published 2015).

These are yes or no findings as the source states them, for the method shown. Some results given as binding are weak or reduced against the parent protein; the word gives no strength.

This experiment concerns the target H3 hemagglutinin (A/Hong Kong/1/1968) (Influenza A virus A/Hong Kong/1/1968 (H3N2)) (UniProt Q91MA7). Description: yeast surface display titration.

B1: SB24solo2 (designed binder)
chain: ASGMLAISMDTDKISNSFEDCKYFLIELKSAGWTNTIFNDESGKEEIVKMGVDAIICKNISEENYKKFSKKIEIYHAEGDDVNKNISLFLEGELSKISNP
As for B1, the binding result was “binds”.
